Binding data for two molecules are collected here from PMC11845791.

These are yes or no findings as the source states them, for the method shown. In cells and extracts the contact can be indirect. These calls come from enrichment with a bait or labelling near it, and not all partners need be listed.

In this test the target is T1, nucleotide pyrophosphatase (NPPS), endogenous in H292 isogenic cells (human (endogenous in H292)) (UniProt P22413).
T1 sequence: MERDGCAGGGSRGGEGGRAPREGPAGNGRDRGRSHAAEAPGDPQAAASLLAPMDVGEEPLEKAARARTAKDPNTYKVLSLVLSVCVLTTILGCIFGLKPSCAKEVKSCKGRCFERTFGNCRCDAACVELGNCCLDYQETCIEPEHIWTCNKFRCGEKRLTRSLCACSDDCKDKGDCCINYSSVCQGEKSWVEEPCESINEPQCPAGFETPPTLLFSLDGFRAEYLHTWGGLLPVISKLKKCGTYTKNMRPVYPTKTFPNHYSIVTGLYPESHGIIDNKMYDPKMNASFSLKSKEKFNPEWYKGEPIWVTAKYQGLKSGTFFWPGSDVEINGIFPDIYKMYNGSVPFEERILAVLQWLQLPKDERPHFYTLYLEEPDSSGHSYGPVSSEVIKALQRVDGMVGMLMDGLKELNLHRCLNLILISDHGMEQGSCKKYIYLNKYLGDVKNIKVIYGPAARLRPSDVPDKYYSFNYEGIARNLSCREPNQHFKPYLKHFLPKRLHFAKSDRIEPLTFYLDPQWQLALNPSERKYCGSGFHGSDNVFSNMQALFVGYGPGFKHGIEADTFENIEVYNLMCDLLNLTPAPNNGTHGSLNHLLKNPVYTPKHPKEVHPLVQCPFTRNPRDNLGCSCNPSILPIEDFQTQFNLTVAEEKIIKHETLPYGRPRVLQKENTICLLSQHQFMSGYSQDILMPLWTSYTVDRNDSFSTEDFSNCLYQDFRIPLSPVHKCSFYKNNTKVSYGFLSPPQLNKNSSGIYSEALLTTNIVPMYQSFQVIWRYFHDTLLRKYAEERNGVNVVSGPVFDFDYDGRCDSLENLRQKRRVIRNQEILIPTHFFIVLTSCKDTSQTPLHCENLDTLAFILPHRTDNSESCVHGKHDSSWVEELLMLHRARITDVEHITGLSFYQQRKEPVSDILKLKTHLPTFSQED
As to the kind of experiment: affinity purification with mass spectrometry; anti-NPPS immunoprecipitates from H292 isogenic cells (KRAS WT clone WT1, KRAS G12C clones C18 and C38); QE-Plus mass spectrometer; hits filtered for concurrent change in G12C clones and relation to glycolysis.

B1: phosphofructokinase, platelet (PFKP), endogenous in H292 isogenic cells (protein, UniProt Q01813 1-784)
chain: MDADDSRAPKGSLRKFLEHLSGAGKAIGVLTSGGDAQGMNAAVRAVVRMGIYVGAKVYFIYEGYQGMVDGGSNIAEADWESVSSILQVGGTIIGSARCQAFRTREGRLKAACNLLQRGITNLCVIGGDGSLTGANLFRKEWSGLLEELARNGQIDKEAVQKYAYLNVVGMVGSIDNDFCGTDMTIGTDSALHRIIEVVDAIMTTAQSHQRTFVLEVMGRHCGYLALVSALACGADWVFLPESPPEEGWEEQMCVKLSENRARKKRLNIIIVAEGAIDTQNKPITSEKIKELVVTQLGYDTRVTILGHVQRGGTPSAFDRILASRMGVEAVIALLEATPDTPACVVSLNGNHAVRLPLMECVQMTQDVQKAMDERRFQDAVRLRGRSFAGNLNTYKRLAIKLPDDQIPKTNCNVAVINVGAPAAGMNAAVRSAVRVGIADGHRMLAIYDGFDGFAKGQIKEIGWTDVGGWTGQGGSILGTKRVLPGKYLEEIATQMRTHSINALLIIGGFEAYLGLLELSAAREKHEEFCVPMVMVPATVSNNVPGSDFSIGADTALNTITDTCDRIKQSASGTKRRVFIIETMGGYCGYLANMGGLAAGADAAYIFEEPFDIRDLQSNVEHLTEKMKTTIQRGLVLRNESCSENYTTDFIYQLYSEEGKGVFDCRKNVLGHMQQGGAPSPFDRNFGTKISARAMEWITAKLKEARGRGKKFTTDDSICVLGISKRNVIFQPVAELKKQTDFEHRIPKEQWWLKLRPLMKILAKYKASYDVSDSGQLEHVQPWSV
B1: the binding entry was “binds”.

B2: hexokinase 1 (HK1), endogenous in H292 isogenic cells (protein, UniProt P19367-1 1-917)
chain: MIAAQLLAYYFTELKDDQVKKIDKYLYAMRLSDETLIDIMTRFRKEMKNGLSRDFNPTATVKMLPTFVRSIPDGSEKGDFIALDLGGSSFRILRVQVNHEKNQNVHMESEVYDTPENIVHGSGSQLFDHVAECLGDFMEKRKIKDKKLPVGFTFSFPCQQSKIDEAILITWTKRFKASGVEGADVVKLLNKAIKKRGDYDANIVAVVNDTVGTMMTCGYDDQHCEVGLIIGTGTNACYMEELRHIDLVEGDEGRMCINTEWGAFGDDGSLEDIRTEFDREIDRGSLNPGKQLFEKMVSGMYLGELVRLILVKMAKEGLLFEGRITPELLTRGKFNTSDVSAIEKNKEGLHNAKEILTRLGVEPSDDDCVSVQHVCTIVSFRSANLVAATLGAILNRLRDNKGTPRLRTTVGVDGSLYKTHPQYSRRFHKTLRRLVPDSDVRFLLSESGSGKGAAMVTAVAYRLAEQHRQIEETLAHFHLTKDMLLEVKKRMRAEMELGLRKQTHNNAVVKMLPSFVRRTPDGTENGDFLALDLGGTNFRVLLVKIRSGKKRTVEMHNKIYAIPIEIMQGTGEELFDHIVSCISDFLDYMGIKGPRMPLGFTFSFPCQQTSLDAGILITWTKGFKATDCVGHDVVTLLRDAIKRREEFDLDVVAVVNDTVGTMMTCAYEEPTCEVGLIVGTGSNACYMEEMKNVEMVEGDQGQMCINMEWGAFGDNGCLDDIRTHYDRLVDEYSLNAGKQRYEKMISGMYLGEIVRNILIDFTKKGFLFRGQISETLKTRGIFETKFLSQIESDRLALLQVRAILQQLGLNSTCDDSILVKTVCGVVSRRAAQLCGAGMAAVVDKIRENRGLDRLNVTVGVDGTLYKLHPHFSRIMHQTVKELSPKCNVSFLLSEDGSGKGAALITAVGVRLRTEASS
In the case of B2, the binding entry was “binds”.
